Measured values reported in article PMC3519869.
These are yes or no findings as the source states them, for the method shown. For some of these results: Binding seen in cells or lysates may run through a third protein. Some entries that bind do so weakly or less than the wild type. Each block holds one molecule with its values, some of them ahead of it.

By UniProt entry, the sequences of proteins in these tests, tags left out. Where a name states a change or a piece, a line headed by the entry shows the natural chain unless it says otherwise. Residues count along the entry.
UniProt O60264: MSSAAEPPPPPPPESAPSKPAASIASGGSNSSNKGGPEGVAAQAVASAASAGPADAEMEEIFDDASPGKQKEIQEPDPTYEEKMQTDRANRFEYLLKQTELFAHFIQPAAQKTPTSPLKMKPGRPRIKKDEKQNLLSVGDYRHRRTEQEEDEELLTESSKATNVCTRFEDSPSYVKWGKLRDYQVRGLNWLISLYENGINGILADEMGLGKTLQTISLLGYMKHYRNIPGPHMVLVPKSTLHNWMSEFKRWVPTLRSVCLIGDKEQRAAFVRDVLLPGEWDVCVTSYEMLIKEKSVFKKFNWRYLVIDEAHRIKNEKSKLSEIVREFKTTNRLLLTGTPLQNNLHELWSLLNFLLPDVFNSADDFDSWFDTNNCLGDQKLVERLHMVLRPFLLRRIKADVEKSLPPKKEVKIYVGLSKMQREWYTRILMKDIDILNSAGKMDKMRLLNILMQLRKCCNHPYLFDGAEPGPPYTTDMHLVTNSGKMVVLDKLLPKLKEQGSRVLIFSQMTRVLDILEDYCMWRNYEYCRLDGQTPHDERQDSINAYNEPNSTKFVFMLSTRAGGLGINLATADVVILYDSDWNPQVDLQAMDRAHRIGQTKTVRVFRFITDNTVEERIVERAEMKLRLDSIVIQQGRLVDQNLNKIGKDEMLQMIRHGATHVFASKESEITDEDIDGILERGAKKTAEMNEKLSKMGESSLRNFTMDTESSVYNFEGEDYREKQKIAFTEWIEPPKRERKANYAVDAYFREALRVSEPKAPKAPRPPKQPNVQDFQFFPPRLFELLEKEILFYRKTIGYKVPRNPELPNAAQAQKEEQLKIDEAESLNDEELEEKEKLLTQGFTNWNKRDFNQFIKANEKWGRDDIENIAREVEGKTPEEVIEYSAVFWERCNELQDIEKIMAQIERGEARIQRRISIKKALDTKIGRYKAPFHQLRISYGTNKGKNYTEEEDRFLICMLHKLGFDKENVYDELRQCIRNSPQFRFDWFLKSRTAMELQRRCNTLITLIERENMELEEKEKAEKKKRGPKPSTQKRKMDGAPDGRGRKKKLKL
UniProt Q04206: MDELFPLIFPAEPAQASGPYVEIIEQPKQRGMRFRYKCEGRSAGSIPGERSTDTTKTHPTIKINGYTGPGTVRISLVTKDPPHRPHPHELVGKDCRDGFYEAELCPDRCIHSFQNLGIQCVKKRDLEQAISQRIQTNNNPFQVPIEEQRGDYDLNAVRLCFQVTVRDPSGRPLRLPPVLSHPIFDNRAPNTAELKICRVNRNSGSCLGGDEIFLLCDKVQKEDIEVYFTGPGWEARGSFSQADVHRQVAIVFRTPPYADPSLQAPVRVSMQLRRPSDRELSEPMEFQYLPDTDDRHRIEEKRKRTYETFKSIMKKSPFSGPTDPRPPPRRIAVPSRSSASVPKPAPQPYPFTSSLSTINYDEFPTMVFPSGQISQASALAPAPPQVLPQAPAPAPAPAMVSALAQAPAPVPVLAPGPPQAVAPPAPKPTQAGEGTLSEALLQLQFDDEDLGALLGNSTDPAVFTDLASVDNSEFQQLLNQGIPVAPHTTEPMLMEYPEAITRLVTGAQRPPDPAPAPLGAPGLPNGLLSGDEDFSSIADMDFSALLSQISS
UniProt O75925: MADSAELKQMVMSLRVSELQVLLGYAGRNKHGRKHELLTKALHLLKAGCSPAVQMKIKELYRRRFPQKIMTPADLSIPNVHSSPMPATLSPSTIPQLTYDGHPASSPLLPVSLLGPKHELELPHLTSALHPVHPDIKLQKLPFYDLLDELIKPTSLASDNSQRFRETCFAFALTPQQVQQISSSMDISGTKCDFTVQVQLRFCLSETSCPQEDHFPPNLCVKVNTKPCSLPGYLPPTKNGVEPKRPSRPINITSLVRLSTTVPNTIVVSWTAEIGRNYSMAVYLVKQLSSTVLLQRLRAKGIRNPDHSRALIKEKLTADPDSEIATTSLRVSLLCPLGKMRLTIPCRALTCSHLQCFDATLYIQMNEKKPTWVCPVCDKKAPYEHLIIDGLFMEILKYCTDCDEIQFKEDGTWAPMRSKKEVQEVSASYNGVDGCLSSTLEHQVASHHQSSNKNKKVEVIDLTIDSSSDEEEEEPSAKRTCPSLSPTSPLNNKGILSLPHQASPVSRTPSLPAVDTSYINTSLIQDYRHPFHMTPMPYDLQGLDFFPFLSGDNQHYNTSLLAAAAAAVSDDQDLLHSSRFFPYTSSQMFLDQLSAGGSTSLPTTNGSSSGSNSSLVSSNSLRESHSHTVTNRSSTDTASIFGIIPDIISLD
UniProt Q8N6T7: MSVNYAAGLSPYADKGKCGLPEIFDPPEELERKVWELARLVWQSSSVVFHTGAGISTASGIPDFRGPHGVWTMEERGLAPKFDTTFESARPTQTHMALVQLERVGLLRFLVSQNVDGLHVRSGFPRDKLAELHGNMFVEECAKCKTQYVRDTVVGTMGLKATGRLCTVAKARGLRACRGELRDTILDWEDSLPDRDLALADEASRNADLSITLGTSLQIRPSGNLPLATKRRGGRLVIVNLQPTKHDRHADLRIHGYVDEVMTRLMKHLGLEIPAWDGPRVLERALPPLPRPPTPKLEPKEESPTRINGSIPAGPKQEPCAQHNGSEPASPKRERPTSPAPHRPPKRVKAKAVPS
UniProt Q13569, residues 101-410: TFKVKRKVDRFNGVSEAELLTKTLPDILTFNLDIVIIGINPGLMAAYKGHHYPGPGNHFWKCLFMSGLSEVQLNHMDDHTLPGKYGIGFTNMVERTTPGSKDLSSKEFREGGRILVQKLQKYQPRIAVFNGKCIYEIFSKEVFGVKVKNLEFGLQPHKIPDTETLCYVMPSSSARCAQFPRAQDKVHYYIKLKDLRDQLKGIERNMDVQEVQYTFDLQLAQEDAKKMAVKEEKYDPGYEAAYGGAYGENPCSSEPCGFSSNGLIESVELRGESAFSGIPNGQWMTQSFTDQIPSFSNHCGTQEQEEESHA

How the values were obtained:
[1] = target: SMARCA5 (human (endogenous in HEK293)) (UniProt O60264); test: co-IP; extract of HEK293 cells transfected with Flag-SIRT6 immunoprecipitated with an antibody to the endogenous partner (anti-RelA/p65, anti-SMARCA5, anti-PIAS1, anti-MYBBP1A) on Protein G agarose; washes incl. 0.5 M NaCl; Western blot with anti-SIRT6 or anti-Flag
[2] = target: RelA/p65 (human (endogenous in HEK293)) (UniProt Q04206); test: as above
[3] = target: PIAS1 (human (endogenous in HEK293)) (UniProt O75925); test: as above
[4] = target: T1, MYB-binding protein 1A (MYBBP1A) (human (endogenous in HEK293)) (UniProt Q9BQG0); test: as above
T1 sequence: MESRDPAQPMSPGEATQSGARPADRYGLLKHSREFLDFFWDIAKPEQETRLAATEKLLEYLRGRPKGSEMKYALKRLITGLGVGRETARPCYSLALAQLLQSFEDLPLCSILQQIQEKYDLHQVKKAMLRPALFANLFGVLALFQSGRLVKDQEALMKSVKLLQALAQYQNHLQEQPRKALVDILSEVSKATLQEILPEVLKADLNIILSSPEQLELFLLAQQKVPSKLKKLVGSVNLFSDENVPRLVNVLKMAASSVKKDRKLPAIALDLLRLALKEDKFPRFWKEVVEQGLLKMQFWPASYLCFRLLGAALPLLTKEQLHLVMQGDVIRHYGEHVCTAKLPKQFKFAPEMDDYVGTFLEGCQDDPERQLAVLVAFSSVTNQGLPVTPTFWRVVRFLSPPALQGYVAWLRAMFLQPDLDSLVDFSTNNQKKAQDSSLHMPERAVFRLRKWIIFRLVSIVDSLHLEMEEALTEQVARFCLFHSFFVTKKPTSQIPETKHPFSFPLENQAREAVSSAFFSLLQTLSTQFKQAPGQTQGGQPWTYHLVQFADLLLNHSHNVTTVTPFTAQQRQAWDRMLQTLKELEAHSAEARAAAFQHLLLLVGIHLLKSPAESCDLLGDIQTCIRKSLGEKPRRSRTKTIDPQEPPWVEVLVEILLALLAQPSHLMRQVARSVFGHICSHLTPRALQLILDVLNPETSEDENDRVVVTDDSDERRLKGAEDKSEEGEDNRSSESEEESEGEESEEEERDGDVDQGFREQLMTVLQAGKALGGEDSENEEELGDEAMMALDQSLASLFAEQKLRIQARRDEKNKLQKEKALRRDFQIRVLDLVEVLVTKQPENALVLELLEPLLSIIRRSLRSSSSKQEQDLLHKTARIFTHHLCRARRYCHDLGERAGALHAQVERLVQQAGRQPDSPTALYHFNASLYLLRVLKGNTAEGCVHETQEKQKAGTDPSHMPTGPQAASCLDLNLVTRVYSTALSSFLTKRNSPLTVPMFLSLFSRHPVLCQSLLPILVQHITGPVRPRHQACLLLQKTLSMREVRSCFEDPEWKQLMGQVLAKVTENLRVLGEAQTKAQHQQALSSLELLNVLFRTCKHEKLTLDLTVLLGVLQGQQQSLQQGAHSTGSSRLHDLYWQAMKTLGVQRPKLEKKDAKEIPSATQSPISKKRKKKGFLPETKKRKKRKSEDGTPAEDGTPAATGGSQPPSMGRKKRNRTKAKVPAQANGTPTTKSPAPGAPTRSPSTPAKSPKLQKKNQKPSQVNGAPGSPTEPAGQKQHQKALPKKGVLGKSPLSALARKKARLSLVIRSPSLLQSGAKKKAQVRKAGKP

[5] = target: Flag-tagged H133W mutant of SIRT6 (human) (UniProt Q8N6T7); test: co-IP; extract of HEK293 cells transfected with Flag-SIRT6 (wild type or H133W) immunoprecipitated with anti-Flag agarose, 1 hour at room temperature; washes incl. 0.5 M NaCl; eluted with Flag peptide or SDS sample buffer; Western blot for the endogenous partner
[6] = target: Flag-tagged wild type SIRT6 (human) (UniProt Q8N6T7); test: as above
[7] = target: LexA-SIRT6 full length wild type bait (N-LexA-SIRT6-C, pB27) (human) (UniProt Q8N6T7); test: two-hybrid; one-by-one assays, re-cloned prey fragments against LexA-SIRT6 wild type or H133W (pB27); growth of diluted diploid yeast on medium lacking tryptophan, leucine and histidine; sensitivity to 3-Aminotriazole (data not shown)
[8] = target: LexA-SIRT6 H133W mutant bait (pB27) (human) (UniProt Q8N6T7); test: as above
[9] = target: Gal4 DNA-binding domain-SIRT6 full length bait (N-Gal4-SIRT6-C, pB35) (human) (UniProt Q8N6T7); test: two-hybrid; library screen, Gal4 DNA-binding domain-SIRT6 bait (pB35) against the same library; mating of Y187 and CG1945; selection on medium lacking tryptophan, leucine, histidine and methionine
[10] = target: LexA-SIRT6 full length wild type bait (N-LexA-SIRT6-C, pB27) (human) (UniProt Q8N6T7); test: two-hybrid; library screen, LexA-SIRT6 bait (pB27) against a random-primed human leukocyte and activated mononuclear cell cDNA library in pP6; mating of Y187 and L40ΔGal4; selection on medium lacking tryptophan, leucine and histidine

- binding [1]: binds
Molecule: Flag-tagged H133W mutant of SIRT6 (from UniProt Q8N6T7 1-355) (enzyme)

- binding [1]: binds
- binding [2]: binds
- binding [3]: binds
- binding [4]: binds
Molecule: Flag-tagged wild type SIRT6 (from UniProt Q8N6T7 1-355) (enzyme)

- binding [5]: binds
- binding [6]: binds
Molecule: PIAS1 (from UniProt O75925 1-651)

- binding [5]: binds
- binding [6]: binds
Molecule: RelA/p65 (from UniProt Q04206 1-551)

- binding [6]: binds
Molecule: SMARCA5 (from UniProt O60264 1-1052)

- binding [7]: binds
- binding [8]: binds
- binding [9]: binds
- binding [10]: binds
Molecule: protein inhibitor of activated STAT1 (PIAS1) residues 303-507, two-hybrid prey (from UniProt O75925 303-507) (domain or fragment)

- binding [7]: binds
- binding [8]: binds
- binding [9]: binds
- binding [10]: binds
Molecule: thymine DNA glycosylase (TDG) residues 101-410, two-hybrid prey (from UniProt Q13569 101-410) (domain or fragment)

- binding [6]: binds
B1: MYB-binding protein 1A (MYBBP1A) (protein, UniProt Q9BQG0 1-1328)
chain: MESRDPAQPMSPGEATQSGARPADRYGLLKHSREFLDFFWDIAKPEQETRLAATEKLLEYLRGRPKGSEMKYALKRLITGLGVGRETARPCYSLALAQLLQSFEDLPLCSILQQIQEKYDLHQVKKAMLRPALFANLFGVLALFQSGRLVKDQEALMKSVKLLQALAQYQNHLQEQPRKALVDILSEVSKATLQEILPEVLKADLNIILSSPEQLELFLLAQQKVPSKLKKLVGSVNLFSDENVPRLVNVLKMAASSVKKDRKLPAIALDLLRLALKEDKFPRFWKEVVEQGLLKMQFWPASYLCFRLLGAALPLLTKEQLHLVMQGDVIRHYGEHVCTAKLPKQFKFAPEMDDYVGTFLEGCQDDPERQLAVLVAFSSVTNQGLPVTPTFWRVVRFLSPPALQGYVAWLRAMFLQPDLDSLVDFSTNNQKKAQDSSLHMPERAVFRLRKWIIFRLVSIVDSLHLEMEEALTEQVARFCLFHSFFVTKKPTSQIPETKHPFSFPLENQAREAVSSAFFSLLQTLSTQFKQAPGQTQGGQPWTYHLVQFADLLLNHSHNVTTVTPFTAQQRQAWDRMLQTLKELEAHSAEARAAAFQHLLLLVGIHLLKSPAESCDLLGDIQTCIRKSLGEKPRRSRTKTIDPQEPPWVEVLVEILLALLAQPSHLMRQVARSVFGHICSHLTPRALQLILDVLNPETSEDENDRVVVTDDSDERRLKGAEDKSEEGEDNRSSESEEESEGEESEEEERDGDVDQGFREQLMTVLQAGKALGGEDSENEEELGDEAMMALDQSLASLFAEQKLRIQARRDEKNKLQKEKALRRDFQIRVLDLVEVLVTKQPENALVLELLEPLLSIIRRSLRSSSSKQEQDLLHKTARIFTHHLCRARRYCHDLGERAGALHAQVERLVQQAGRQPDSPTALYHFNASLYLLRVLKGNTAEGCVHETQEKQKAGTDPSHMPTGPQAASCLDLNLVTRVYSTALSSFLTKRNSPLTVPMFLSLFSRHPVLCQSLLPILVQHITGPVRPRHQACLLLQKTLSMREVRSCFEDPEWKQLMGQVLAKVTENLRVLGEAQTKAQHQQALSSLELLNVLFRTCKHEKLTLDLTVLLGVLQGQQQSLQQGAHSTGSSRLHDLYWQAMKTLGVQRPKLEKKDAKEIPSATQSPISKKRKKKGFLPETKKRKKRKSEDGTPAEDGTPAATGGSQPPSMGRKKRNRTKAKVPAQANGTPTTKSPAPGAPTRSPSTPAKSPKLQKKNQKPSQVNGAPGSPTEPAGQKQHQKALPKKGVLGKSPLSALARKKARLSLVIRSPSLLQSGAKKKAQVRKAGKP
